The experiment in a line: qHTS Assay for Lipid Storage Modulators in Drosophila S3 Cells.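 As to cell number change: cells counted by Cell Tracker Red CMTPX staining in the red channel.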 The following applies: BODIPY lipid droplet fluorescence, 18-24 h; for cell number change: measured here: cell count max response, cells fed with added oleic acid. An outline of the steps: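 Laser-scanning cytometry quantifies lipid droplet accumulation (500–530 nm total intensity; droplet/cell object ratio) in oleic acid-fed (400 uM added) Drosophila S3 cells treated with a concentration series. 20 uM Triacsin C defined 100% inhibition.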
On the technique in general: qHTS replaces the single test concentration by a dilution series.

Setting [1] is: measured here: cell number channel AC50, cells fed with added oleic acid.
Setting [2] is: measured here: lipid fluorescence (Fed channel) AC50, cells fed with added oleic acid.

SMILES strings stand for the structures. Some of the results follow. The main result of the screen is listed elsewhere. These columns were measured beside it and carry no call. Most of these compounds were active or inconclusive in the main read-out, so they are no random draw. The note in brackets gives the kind of curve behind each potency; many fits are weak.

As for `CCN(CC)S(=O)(=O)c1ccc(/C=C/C(=O)Nc2c(C)n(C)n(-c3ccccc3)c2=O)cc1`, the AC50 (commonly the concentration giving half of the maximal activity seen) under setting [1] is 5.8 µM [rising, single point] and the AC50 under setting [2] was 5.8 µM [rising, single point].

`O=c1nc(N2CCOCC2)ccn1-c1nc(-c2ccccc2)oc1-c1ccccc1`: the cell number change is -4.32%.

Consider `O=C(Nc1nnc(-c2ccncc2)o1)c1ccc(Br)s1`, for which the cell number change is -23.8%. Also, the AC50 under setting [2] is 23.1 µM [falling, partial curve].

Consider `CCC(=O)Nc1nc2n(n1)C(c1ccc(OC)cc1)C=C(c1ccccc1)N2` (centres undefined), for which, under setting [1], the AC50 was 0.0651 µM [rising, full curve, poor fit]. As for `Cc1cccc2nc(-c3ccccc3)nc(N[C@@H](CO)c3ccccc3)c12`, the cell number change is -63.4%. Moreover, the AC50 under setting [1] was 18.4 µM [falling, single point]. Besides, the AC50 under setting [2] was 9.2 µM [rising, partial curve]. On to `CCc1nc2cccnc2n1-c1ccc(CC(=O)NCCOC)cc1`, for which the cell number change came out at 12.8%. In addition, the AC50 under setting [2] was 3.66 µM [rising, full curve, poor fit].

Regarding `O=c1[nH]c2c(cc1CNCCN1CCOCC1)c(-c1cccc(F)c1)nn2-c1ccccc1`, the cell number change is -26.3%. In addition, the AC50 under setting [1] was 2.59 µM [falling, full curve, poor fit].

Regarding `CCOC(=O)c1cc2ccc(OC)c(OC)c2c(=O)s1`, the AC50 under setting [1] is 3.66 µM [rising, single point] and the AC50 under setting [2] was 3.26 µM [rising, partial curve]. With `Cn1c(SCC(=O)Nc2ccccc2Cl)nnc1C1CC1`, the cell number change turned out to be 7.5%. In the case of `CC(NC(=O)COC(=O)C1CCN(c2ccc(C(F)(F)F)cn2)CC1)c1ccc(F)cc1` (centres undefined), the cell number change was -6.88%. Further, the AC50 under setting [2] was 0.651 µM [rising, full curve, poor fit].

On to `O=C(Nc1cc(F)ccc1F)C1CCN(S(=O)(=O)c2cccc3nonc23)CC1`, for which the AC50 under setting [1] is 1.84 µM [falling, partial curve, poor fit]. As to `COc1cc(OC)cc(-c2nnc(NC(=O)CCS(=O)(=O)c3ccc(F)cc3)o2)c1`, the cell number change turned out to be 206%. Further, the AC50 under setting [1] was 9.2 µM [rising, partial curve]. In the case of `CCSc1nncn1/N=C/c1ccc(OC)c(OC)c1`, the AC50 under setting [1] is 3.66 µM [rising, partial curve].

With `Cc1c(NS(=O)(=O)c2cc(C(=O)NCc3ccco3)cc(Cl)c2Cl)c(=O)n(-c2ccccc2)n1C`, the concentration at half-maximal activity (AC50) under setting [2] was 7.31 µM [rising, partial curve]. With `COc1ccc(CSc2nnnn2-c2ccc(C(=O)O)cc2)cc1`, the cell number change turned out to be 1.42%. The AC50 under setting [2] is 36.6 µM [rising, partial curve, poor fit].

In the case of `O=C(NS(=O)(=O)Oc1ccc(F)cc1F)OC[C@@H]1CCCN2CCCCC12` (some centres undefined), the cell number change was -16.2%. As for `Cc1cccc(NC(=O)CS(=O)(=O)c2c[nH]c3ccccc23)c1C`, the cell number change is -21.5%. Further, the AC50 under setting [2] is 18.4 µM [falling, partial curve]. With `CC(C)[C@@H](NC(=O)OC(C)(C)C)C(=O)NCC1CCC(C(=O)N[C@@H](Cc2ccccc2)C(=O)O)CC1` (some centres undefined), the cell number change amounted to 80.6%. In addition, under setting [1], the AC50 is 29.1 µM [rising, partial curve].

As for `COc1ccc2c(c1)[nH]c1c(=O)n(/N=C/c3ccc(OC)c(CN4CCCC4)c3)cnc12`, the cell number change was 22.1%. Further, the AC50 under setting [1] is 0.00461 µM [rising, full curve, poor fit]. In the case of `COC(=O)c1ccc(Cn2c(CN3CCOCC3)nc3ccccc3c2=O)o1`, the cell number change stood at 13.2%. Moreover, the AC50 under setting [2] is 29.1 µM [rising, single point].

In the case of `Cc1nn(CC(=O)Nc2cc(S(=O)(=O)N(C)C)ccc2Cl)c(C)c1[N+](=O)[O-]`, the cell number change was -24.8%. In addition, under setting [2], the AC50 is 0.651 µM [falling, partial curve]. As for `COc1ccc(N2CCN(C3CCCN(Cc4cccc(C(C)=O)c4)C3)CC2)cc1` (centres undefined), the cell number change came out at 6.99%.

For the compound `COc1ccc2cc(CN(CC3CCCO3)S(=O)(=O)c3ccc(C(C)=O)cc3)c(=O)[nH]c2c1` (centres undefined), the cell number change is 71.8%. Further, the AC50 under setting [1] is 29.1 µM [rising, single point]. Besides, under setting [2], the AC50 is 6.51 µM [falling, single point].

Consider `Cc1ccc(CN2CCN(Cc3cnc(N4CCOCC4)s3)CC2CCO)o1` (centres undefined), for which the cell number change was determined as 14.4%. Under setting [2], the AC50 was 14.6 µM [rising, single point]. With `Cc1cnc(NC(=O)C2COc3ccccc3O2)s1` (centres undefined), the cell number change is 7.81%. Further, the AC50 under setting [2] was 16.4 µM [falling, single point].

On to `CC(=O)C1=C(S(=O)(=O)c2ccc(C)cc2)CS(=O)(=O)C1`, for which the cell number change is -37.7%. Moreover, the AC50 under setting [1] was 0.411 µM [falling, partial curve]. Besides, the AC50 under setting [2] was 0.116 µM [falling, full curve, poor fit]. Turning to `Cc1ccnc2nc(C(=O)Nc3cc(Cl)ccc3N3CCOCC3)nn12`, the cell number change was -14.7%. The AC50 under setting [2] is 9.2 µM [falling, partial curve]. As for `CC(/C=C1\SC(=S)N(NC(=O)c2ccc(O)cc2)C1=O)=C\c1ccccc1`, the cell number change is -63.1%. In addition, the AC50 under setting [1] is 32.6 µM [falling, single point]. Under setting [2], the AC50 is 6.51 µM [falling, single point].

`CCc1cc2c(=O)[nH]c(COC)nc2s1`: the cell number change is -9.83%. Also, the AC50 under setting [2] is 0.00411 µM [rising, full curve, poor fit]. Regarding `Cc1cc(Br)ccc1OCC(=O)NNC(=O)c1ccc(NC(=O)C2CC2)cc1`, the cell number change amounted to 21.5%. Also, the AC50 under setting [1] is 0.326 µM [rising, partial curve, poor fit]. Besides, the AC50 under setting [2] is 0.082 µM [rising, full curve, poor fit]. `Cc1ccc(-c2cc(C(=O)N/N=C/c3ccccc3O)n[nH]2)o1`: the cell number change was -31.7%. The AC50 under setting [1] is 29.1 µM [falling, single point]. Moreover, under setting [2], the AC50 was 20.6 µM [falling, partial curve]. As for `Cc1ccc(OCC(=O)NCCNC(=O)c2cnccn2)cc1C`, the cell number change worked out at 2.42%. Besides, the AC50 under setting [2] is 20.6 µM [rising, single point]. Regarding `Cc1cccc(-n2cnc3cc(C(=O)N4CCc5ccccc54)ccc32)c1`, the cell number change was -13.8%. Also, under setting [2], the AC50 was 23.1 µM [falling, partial curve].

As for `Cn1cccc1/C=N/n1c(-c2ccc(Cl)cc2Cl)n[nH]c1=S`, the cell number change was -54.9%. Further, the AC50 under setting [1] was 32.6 µM [falling, partial curve].

In the case of `COc1ccc(S(=O)(=O)N(CCc2ccccc2)CC(=O)O)cc1`, the cell number change was -37.6%. Further, the AC50 under setting [1] was 3.26 µM [falling, partial curve]. The concentration at half-maximal activity (AC50) under setting [2] is 16.4 µM [falling, single point]. In the case of `Cc1oc2cc3oc(=O)c(CC(=O)NCCC(=O)O)c(C)c3cc2c1C`, the cell number change was 8.33%. Take `O=C(N/N=C/c1cccc([N+](=O)[O-])c1)C1CC(=O)N(c2ccc(Cl)cc2)C1` (centres undefined): the AC50 under setting [2] was 11.6 µM [rising, partial curve, poor fit]. Take `COc1ccccc1N1CCN(C(=S)NC(=O)/C=C/c2ccccc2)CC1`: the cell number change was determined as 0.173%. As for `CCOc1ccc(NC(=O)[C@@H]2CCCN2C(=O)c2cccs2)cc1S(=O)(=O)N1CCCCC1`, the AC50 under setting [2] is 0.13 µM [falling, full curve, poor fit]. For `COc1ccc(C=O)cc1OS(=O)(=O)c1ccccc1[N+](=O)[O-]`, the cell number change is -17.5%. The AC50 under setting [2] was 0.259 µM [falling, full curve]. As for `COc1ccc2c(c1)cc(C(=O)N[C@@H](Cc1ccccc1)C(=O)N[C@@H](C)C(=O)O)n2C`, the cell number change came to 3.55%. As to `C/C=C/c1cc(CN2CCN(c3ccccc3)CC2)c(O)c(OC)c1`, the cell number change was 4.74%.

As for `COc1ccc(C(=O)NN2C(=O)C3C(c4ccccc4)C=CC(c4ccccc4)C3C2=O)cc1` (centres undefined), the cell number change was -15%. In addition, the AC50 under setting [2] was 16.4 µM [falling, single point].

For the compound `COc1ccccc1CN(C)C(=O)CN1CCN(CC(=O)Nc2ccccc2Cl)CC1`, the cell number change is -22.3%. Moreover, the concentration at half-maximal activity (AC50) under setting [2] was 0.103 µM [rising, full curve, poor fit]. Take `COc1ccc(-c2cc(C(=O)NC3CC3)c3ccccc3n2)cc1`: the cell number change is 24.4%. Moreover, under setting [2], the AC50 was 4.61 µM [rising, single point]. Turning to `CCc1ccc(CC2S/C(=C(\C#N)C(C)=O)NC2=O)cc1` (centres undefined), the cell number change is -80.6%. Further, the AC50 under setting [1] was 18.4 µM [falling, partial curve]. Take `CCCCn1c(N)c(N(CC(C)C)C(=O)c2cc(S(=O)(=O)N3CCCCC3)ccc2C)c(=O)[nH]c1=O`: the cell number change is -19.1%.

Consider `COc1ccc(CC(=O)NNS(=O)(=O)c2ccc([N+](=O)[O-])cc2)cc1OC`, for which the cell number change amounted to 6.09%. The AC50 under setting [2] was 6.51 µM [falling, single point].

`COCCCNC(=S)NC1CCCCC1`: the cell number change came to 41.3%. Further, under setting [1], the AC50 is 23.1 µM [rising, single point]. The AC50 under setting [2] was 23.1 µM [rising, single point]. Regarding `O=C(CCS(=O)(=O)c1ccccc1)Nc1nc(-c2cccs2)cs1`, the cell number change is 21.3%. Under setting [2], the AC50 is 14.6 µM [falling, partial curve]. As for `O=C(CN1C(=O)/C(=C2\SC(=S)N(CCS(=O)(=O)O)C2=O)c2ccccc21)Nc1cccc(Br)c1`, the cell number change is -5.46%. Moreover, the AC50 under setting [2] is 29.1 µM [falling, single point].

Take `COc1cccc(/C=N/Nc2ccc([N+](=O)[O-])cn2)c1O`: the cell number change was -61.4%. Besides, the AC50 under setting [1] is 6.51 µM [falling, full curve]. Besides, under setting [2], the AC50 was 4.61 µM [falling, full curve].

For the compound `Cc1ccc(O)c(NC(=S)NC(=O)COc2ccc(Br)cc2)c1`, the cell number change was -25.5%. Further, the AC50 under setting [2] was 29.1 µM [falling, single point]. On to `CCn1c(SCC(=O)N2CCCCC2)nnc1-c1ccc(S(=O)(=O)N2CCN(C)CC2)cc1`, for which the cell number change is -7.29%. Further, the AC50 under setting [2] was 4.11 µM [falling, single point]. Consider `Cc1ccc(C(=O)NC(C)c2ccncc2)o1` (centres undefined), for which the cell number change was found to be 25.9%. In addition, the AC50 under setting [2] was 0.651 µM [rising, full curve, poor fit]. Regarding `O=C1OCCC1Sc1nc2ccccc2n1Cc1ccccc1` (centres undefined), the cell number change is -17.8%. Moreover, the concentration at half-maximal activity (AC50) under setting [1] is 0.92 µM [falling, full curve, poor fit]. Take `O=C1COc2ccc(-c3n[nH]c(=O)c4ccccc34)cc2N1`: the cell number change is -74.6%. Turning to `CN(C)CCNC(=O)CNC(=S)N(Cc1ccccc1)Cc1cccnc1`, the cell number change was -0.569%. Under setting [2], the AC50 is 2.31 µM [rising, partial curve, poor fit].

Source of the values: PubChem BioAssay AID2685 (National Center for Advancing Translational Sciences (NCATS), 2010).
